Test results taken from article PMC5489314.
Results are given in words; binding and its absence hold for the method and conditions named. Binding seen in cells or lysates may run through a third protein. Some binding calls cover weakened binding; strength is not graded here.

By UniProt entry, the sequences of proteins in these tests, tags left out. Where a name states a change or a piece, a line headed by the entry shows the natural chain unless it says otherwise. Chains listed by the source or under a name are the forms on record and can include a tag or linker.
DDR1b-KD-Cys (K655A/T416C) (Q08345-1, form named): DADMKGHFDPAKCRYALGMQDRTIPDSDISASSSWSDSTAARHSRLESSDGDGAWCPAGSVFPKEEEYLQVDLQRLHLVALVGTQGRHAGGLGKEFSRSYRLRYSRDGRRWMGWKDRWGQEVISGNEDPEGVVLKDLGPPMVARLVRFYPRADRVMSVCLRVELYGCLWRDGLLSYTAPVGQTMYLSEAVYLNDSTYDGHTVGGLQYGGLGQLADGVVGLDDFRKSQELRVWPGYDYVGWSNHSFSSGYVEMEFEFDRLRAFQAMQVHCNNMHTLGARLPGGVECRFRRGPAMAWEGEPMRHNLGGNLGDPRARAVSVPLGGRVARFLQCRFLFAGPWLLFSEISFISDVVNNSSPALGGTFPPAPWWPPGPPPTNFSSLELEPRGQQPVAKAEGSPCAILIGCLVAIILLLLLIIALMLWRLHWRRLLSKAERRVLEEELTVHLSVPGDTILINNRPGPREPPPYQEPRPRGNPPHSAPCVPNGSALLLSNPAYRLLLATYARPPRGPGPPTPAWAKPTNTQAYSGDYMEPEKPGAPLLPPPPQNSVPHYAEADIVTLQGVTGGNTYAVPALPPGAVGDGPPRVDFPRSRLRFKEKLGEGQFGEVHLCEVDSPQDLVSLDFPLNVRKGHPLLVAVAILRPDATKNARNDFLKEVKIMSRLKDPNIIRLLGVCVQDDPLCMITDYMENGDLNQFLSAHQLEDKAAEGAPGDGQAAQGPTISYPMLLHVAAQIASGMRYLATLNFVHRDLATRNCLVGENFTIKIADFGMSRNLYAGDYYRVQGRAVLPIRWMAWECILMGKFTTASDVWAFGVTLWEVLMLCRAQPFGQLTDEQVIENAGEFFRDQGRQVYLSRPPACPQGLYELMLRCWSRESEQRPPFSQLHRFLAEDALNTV
DDR1b-L152E/T416C (Q08345-1, form named): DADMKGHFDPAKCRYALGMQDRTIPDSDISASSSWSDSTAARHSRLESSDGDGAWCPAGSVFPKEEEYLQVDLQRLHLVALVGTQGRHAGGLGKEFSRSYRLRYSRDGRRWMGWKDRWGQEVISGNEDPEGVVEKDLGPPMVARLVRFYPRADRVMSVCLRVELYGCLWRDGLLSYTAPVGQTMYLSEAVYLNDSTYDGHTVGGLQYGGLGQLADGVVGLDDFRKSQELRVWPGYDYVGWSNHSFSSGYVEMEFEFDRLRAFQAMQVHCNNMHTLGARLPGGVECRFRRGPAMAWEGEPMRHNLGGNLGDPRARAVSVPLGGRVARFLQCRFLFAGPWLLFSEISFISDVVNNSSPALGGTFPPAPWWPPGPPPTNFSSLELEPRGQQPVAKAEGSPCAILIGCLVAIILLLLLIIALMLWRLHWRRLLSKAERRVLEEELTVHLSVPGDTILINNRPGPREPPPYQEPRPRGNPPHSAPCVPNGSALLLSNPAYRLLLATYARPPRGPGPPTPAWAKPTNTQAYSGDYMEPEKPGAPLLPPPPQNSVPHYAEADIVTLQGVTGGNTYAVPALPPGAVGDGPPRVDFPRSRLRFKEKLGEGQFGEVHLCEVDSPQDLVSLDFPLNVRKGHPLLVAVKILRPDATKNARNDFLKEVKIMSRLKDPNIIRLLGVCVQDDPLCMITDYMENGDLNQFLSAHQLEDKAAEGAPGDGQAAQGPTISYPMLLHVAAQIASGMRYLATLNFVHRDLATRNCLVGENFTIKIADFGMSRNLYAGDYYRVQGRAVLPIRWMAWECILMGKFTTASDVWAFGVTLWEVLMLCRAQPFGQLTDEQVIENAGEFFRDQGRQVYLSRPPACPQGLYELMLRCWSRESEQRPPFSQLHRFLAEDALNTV
DDR1b-R32E/T416C (Q08345-1, form named): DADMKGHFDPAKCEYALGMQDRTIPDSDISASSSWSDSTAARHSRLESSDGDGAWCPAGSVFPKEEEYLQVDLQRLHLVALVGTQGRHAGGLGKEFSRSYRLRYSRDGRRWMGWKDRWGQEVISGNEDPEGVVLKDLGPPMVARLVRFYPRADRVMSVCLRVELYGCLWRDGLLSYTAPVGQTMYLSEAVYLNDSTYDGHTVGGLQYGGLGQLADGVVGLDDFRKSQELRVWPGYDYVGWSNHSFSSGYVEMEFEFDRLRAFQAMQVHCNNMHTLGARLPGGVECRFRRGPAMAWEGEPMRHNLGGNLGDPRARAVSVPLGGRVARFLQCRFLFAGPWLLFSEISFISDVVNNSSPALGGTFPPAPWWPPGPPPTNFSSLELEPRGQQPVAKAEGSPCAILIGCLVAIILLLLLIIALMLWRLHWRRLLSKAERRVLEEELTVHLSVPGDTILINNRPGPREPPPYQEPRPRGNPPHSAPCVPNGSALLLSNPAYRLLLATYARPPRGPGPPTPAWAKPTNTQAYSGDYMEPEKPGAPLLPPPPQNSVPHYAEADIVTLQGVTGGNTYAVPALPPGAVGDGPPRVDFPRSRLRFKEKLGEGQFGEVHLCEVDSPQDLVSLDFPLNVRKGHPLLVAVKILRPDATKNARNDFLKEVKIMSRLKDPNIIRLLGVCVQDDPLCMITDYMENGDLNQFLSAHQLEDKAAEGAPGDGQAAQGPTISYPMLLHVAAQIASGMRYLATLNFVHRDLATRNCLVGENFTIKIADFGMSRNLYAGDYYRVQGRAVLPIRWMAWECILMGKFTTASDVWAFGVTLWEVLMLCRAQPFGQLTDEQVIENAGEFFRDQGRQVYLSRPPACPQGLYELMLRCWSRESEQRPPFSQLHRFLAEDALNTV
DDR1b-W53A/T416C (Q08345-1, form named): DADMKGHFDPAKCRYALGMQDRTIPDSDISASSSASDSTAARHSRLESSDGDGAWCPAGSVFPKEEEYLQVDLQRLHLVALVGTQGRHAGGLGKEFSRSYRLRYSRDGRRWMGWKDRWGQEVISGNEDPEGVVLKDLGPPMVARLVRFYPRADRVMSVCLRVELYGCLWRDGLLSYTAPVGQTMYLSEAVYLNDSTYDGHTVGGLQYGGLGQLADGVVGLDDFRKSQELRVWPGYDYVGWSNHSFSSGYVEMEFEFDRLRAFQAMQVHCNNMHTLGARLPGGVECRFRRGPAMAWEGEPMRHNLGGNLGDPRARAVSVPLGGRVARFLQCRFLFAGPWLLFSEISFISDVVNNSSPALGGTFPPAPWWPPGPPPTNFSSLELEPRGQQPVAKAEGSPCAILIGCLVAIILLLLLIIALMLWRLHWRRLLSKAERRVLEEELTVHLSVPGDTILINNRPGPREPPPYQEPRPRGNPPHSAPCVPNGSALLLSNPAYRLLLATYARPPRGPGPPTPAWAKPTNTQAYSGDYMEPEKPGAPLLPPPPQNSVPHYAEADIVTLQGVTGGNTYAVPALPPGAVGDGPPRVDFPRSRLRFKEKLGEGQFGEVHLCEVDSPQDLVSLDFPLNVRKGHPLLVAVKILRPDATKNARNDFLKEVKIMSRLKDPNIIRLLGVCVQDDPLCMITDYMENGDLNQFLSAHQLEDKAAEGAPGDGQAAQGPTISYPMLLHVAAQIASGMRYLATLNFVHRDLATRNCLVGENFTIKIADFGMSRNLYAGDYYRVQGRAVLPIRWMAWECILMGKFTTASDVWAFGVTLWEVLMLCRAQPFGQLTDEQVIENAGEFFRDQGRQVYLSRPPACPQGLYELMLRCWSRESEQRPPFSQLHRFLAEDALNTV
DDR1b-ΔECD-Cys (Q08345-1, form named): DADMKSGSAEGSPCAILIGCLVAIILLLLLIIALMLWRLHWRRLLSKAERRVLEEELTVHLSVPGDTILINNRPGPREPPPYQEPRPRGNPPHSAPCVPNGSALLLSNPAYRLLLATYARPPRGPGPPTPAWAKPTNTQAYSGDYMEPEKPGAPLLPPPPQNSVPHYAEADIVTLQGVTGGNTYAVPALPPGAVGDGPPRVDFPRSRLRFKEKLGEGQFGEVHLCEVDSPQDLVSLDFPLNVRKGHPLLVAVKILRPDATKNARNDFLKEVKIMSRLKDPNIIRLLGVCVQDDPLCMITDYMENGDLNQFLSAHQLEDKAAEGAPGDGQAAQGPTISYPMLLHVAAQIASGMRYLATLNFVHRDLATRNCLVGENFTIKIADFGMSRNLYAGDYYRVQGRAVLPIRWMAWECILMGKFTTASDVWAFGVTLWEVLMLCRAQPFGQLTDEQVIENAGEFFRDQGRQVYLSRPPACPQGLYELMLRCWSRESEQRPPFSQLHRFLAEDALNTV
DDR1b-ΔECD-Cys-TM1 (Q08345-1, form named): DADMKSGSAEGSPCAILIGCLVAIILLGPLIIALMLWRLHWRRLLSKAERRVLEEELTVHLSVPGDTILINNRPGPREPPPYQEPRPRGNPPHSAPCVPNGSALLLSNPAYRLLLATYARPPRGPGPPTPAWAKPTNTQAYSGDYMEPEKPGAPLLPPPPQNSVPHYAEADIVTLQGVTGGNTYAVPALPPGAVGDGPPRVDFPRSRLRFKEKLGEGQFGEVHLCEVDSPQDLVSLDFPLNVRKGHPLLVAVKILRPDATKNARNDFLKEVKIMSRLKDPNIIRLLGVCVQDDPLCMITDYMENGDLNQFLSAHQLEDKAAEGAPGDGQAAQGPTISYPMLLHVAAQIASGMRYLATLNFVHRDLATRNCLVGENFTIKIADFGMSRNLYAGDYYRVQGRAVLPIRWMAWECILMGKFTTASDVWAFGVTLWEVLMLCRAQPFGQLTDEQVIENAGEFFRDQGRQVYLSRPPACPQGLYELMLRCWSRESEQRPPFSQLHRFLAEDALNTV

Legend:
Experiment in all cases: cross-linking; disulphide cross-link through the engineered cysteine T416C; constructs transiently expressed in HEK293; cells lysed with 30 mM NEM; non-reducing SDS-PAGE (5% or 7.5%) and Western blot with anti-DDR1
[1] = target: DDR1b-KD-Cys (K655A/T416C) (UniProt Q08345)
DDR1b-L152E/T416C = DDR1b-L152E/T416C (UniProt Q08345)
DDR1b-R32E/T416C = DDR1b-R32E/T416C (UniProt Q08345)
DDR1b-W53A/T416C = DDR1b-W53A/T416C (UniProt Q08345)
DDR1b-ΔECD-Cys = DDR1b-ΔECD-Cys (UniProt Q08345)
DDR1b-ΔECD-Cys-TM1 = DDR1b-ΔECD-Cys-TM1 (UniProt Q08345)

Substance: DDR1b-KD-Cys (K655A/T416C) (from UniProt Q08345-1 19-913) (receptor)
- binding [1]: binds

Substance: DDR1b-L152E/T416C (from UniProt Q08345-1 19-913) (receptor)
- binding (DDR1b-L152E/T416C): binds

Substance: DDR1b-R32E/T416C (from UniProt Q08345-1 19-913) (receptor)
- binding (DDR1b-R32E/T416C): binds

Substance: DDR1b-W53A/T416C (from UniProt Q08345-1 19-913) (receptor)
- binding (DDR1b-W53A/T416C): binds

Substance: DDR1b-ΔECD-Cys (from UniProt Q08345-1 411-913) (domain or fragment)
- binding (DDR1b-ΔECD-Cys): binds

Substance: DDR1b-ΔECD-Cys-TM1 (from UniProt Q08345-1 411-913) (domain or fragment)
- binding (DDR1b-ΔECD-Cys-TM1): binds
